Laboratory results taken from PMC10163288.
The list shows a part of the results.

B1: il10ra_site1_normal_mot_2c1a291787c6f40772924d4e9068d803_0001_af2_000000222_0001_34_48_H_._HHH_b1_06580_af2_0001_0000100002_0000001_0_1_af2pred_0001 (protein)
chain: SSSSDLEREALQLAAEAIALAQRRGDEETVRRLFELLIRLYREGDPRLAEELLELAEEVLSSSSS
B2: il10ra_site1_normal_mot_df72e6d168b63c4d22c4171a8daa05df_0001_000000224_0001_53_65_H_._df72e6d168b63c4d22c4171a8daa05df_0001_0001_0000100003_0000003_1 (protein)
chain: SLEELLRELLERGDEEKLRELAEEILELAKQGDPEALELILRIARLMMRDPLVRIVASALTELQY
B3: il10ra_site1_normal_mot_8756ee2cf497b5429c717dfc0c0bcfd6_0001_000000186_0001_1_13_H_._HHH_b2_04426_0001_0000300010_0000001_0_af2pred_0001 (protein)
chain: SSSSSSSYVELLRRIAEADLDRDPEEAEELLEEVKRLAEERNDLIAEVIVEFLEKEVNSSSSSSS
B4: il10ra_site1_normal_mot_HHH_b1_05021_af2_000000076_0001_42_56_H_._HHH_b2_06583_af2_0001_0000500008_0000001_0_af2pred_0001 (protein)
chain: SSSSSDRELVEEAIRILREAAKIDDKEEVEELLEEARKLAEEANNIQLELQIKFIEEMLSSSSSS
B5: il10ra_site1_sap_14_mot_HHH_b2_03117_000000257_0001_1_18_H_._HHH_b1_02472_0001_0000100003_0000002_1_0001 (protein)
chain: SSSSSEEERYVKLTLRFAEWLAENGDPRAAEHFLKAAKDIAENFNNEELKELIEEVHERISSSSS
B6: il10ra_site1_sap_17_mot_HHH_b2_00837_af2_000000287_0001_40_54_H_._HHH_b1_04774_af2_0001_0000100002_0000001_0_0001 (protein)
chain: SSSSSEIARKSVKFMLEAAKQIDDEEYVKLSLMFAEQSARAANDDELERLVEEVREELENSSSSS
B7: il10ra_site1_normal_mot_HHH_b1_06256_000000091_0001_42_58_H_._HHH_b2_07022_0001_0000100009_0000002_0 (protein)
chain: SSSDEAERSLTRFVEQALENAIRAGDEEAARRYLEIAARFLRNAGDHEAVEELEELVEELLSSSS
B8: il10ra_site1_sap_27_mot_HHH_b2_02537_000000065_0001_1_20_H_._HHH_b2_03111_af2_0001_0000200010_0000001_0_0001 (protein)
chain: SSSSSAAEELKEIIEELLRLQREGDEEEFEKLIEEAERELKEKGDQLSLRIIEYILRLFHSSSSS
B9: il10ra_site1_normal_mot_HHH_b1_02997_000000220_0001_39_52_H_._HHH_b2_03513_0001_0000200020_0000002_0_af2pred_0001 (protein)
chain: SSSSDEQRELVELIREAAELHAEGNPEEAERVAREAEELAEELNDEIARIIIEFLLEQISSSSSS
B10: il10ra_site1_sap_23_mot_HHH_b1_03094_000000294_0001_1_20_H_._HHH_b1_06981_0001_0000200012_0000001_0_0001 (protein)
chain: SSSSSQEEELVRAALRIAQQLYENGNPESAKLILEAAEMLAEEIGDEELRELVEEVKEKISSSSS
B11: il10ra_site1_normal_mot_HHH_b1_00999_000000080_0001_41_55_H_._HHH_b1_03194_0001_0000300024_0000001_0 (protein)
chain: SSSSSSDVEELLEELERLLEEGNKEEALRILQEALRHAFRNSDPELLQELWEFARRLGSSSSSSS
B12: il10ra_site1_normal_mot_HHH_b2_08186_000000021_0001_43_56_H_._HHH_b2_04824_af2_0001_0000200004_0000001_0 (protein)
chain: SSSSSDEFARIAQKAVRLAYELGDEETLQLLWELLREYIERGDPELQEELEELLEELERRSSSSS
B13: il10ra_site1_normal_mot_513c16ae44941e68898e0f7c259e5a28_0001_1_000000056_0001_35_50_H_._ems_p1-15H-GBL-16H-GABBL-16H_0041_0001_0001_0002_af2_0001_0000500010_00 … (protein)
chain: SSSSSDVEEKAEEAQELAREKGDEQAERLLKILARAYELGILSEEEAERAIELVIELLEESSSSS
B14: il10ra_site1_sap_19_mot_2b57f6184e3cbf08022d7a5dd7fdd81c_0001_af2_000000095_0001_34_50_H_._HHH_b1_03700_0001_0000300007_0000001_0_0001 (protein)
chain: STEERARIAVRALAEQAGVPEFEVEVSNNSVEVTLNGDDEAVRQAEIAIRAAAFLYRIEIHVETQ
B15: il10ra_site1_normal_mot_2c1a291787c6f40772924d4e9068d803_0001_af2_000000222_0001_34_48_H_._HHH_b1_05888_af2_0001_0000600034_0000001_0 (protein)
chain: SSSSNLEEEIFQLLIEAYLLLQRGDEEEARELLEQAKELAEELNDPALLRAVESLLAKLDSSSSS
B16: il10ra_site1_sap_29_mot_HHH_b2_01447_af2_000000258_0001_1_20_H_._HHH_b1_01009_0001_0000200017_0000001_0_0001 (protein)
chain: SSSSDELVHEFYKLSRELAEAAREGDEERVKELLEELEELAEKANSPLLKFIVRLLEEDNSSSSS
B17: il10ra_site1_sap_25_mot_HHH_b2_08186_000000021_0001_43_56_H_._HHH_b2_07188_0001_0001100123_0000001_0_0001 (protein)
chain: SSSSSSDEVEEEAEELLEELERRGNRAAVFLLRQALEALKLSGDPTAKEILESMIRIASSSSSSS
B18: il10ra_site1_sap_23_mot_HHH_b1_04771_000000013_0001_40_56_H_._HHH_b1_02811_0001_0000100005_0000001_0_0001_af2pred_0001 (protein)
chain: SSSSDEDRKAVELTLRFMRFLAKHGDREAVEYFFRAAKELIERAGDEELEEELEELYEELQSSSS
B19: il10ra_site1_normal_mot_HHH_b1_04771_000000013_0001_40_56_H_._HHH_b2_07574_af2_0001_0000400014_0000001_0 (protein)
chain: SSSSSSTKAVELSLEAFRAALRGNPEEARELLEEAEQIAEEEGDERTLRIIRDLLKALSSSSSSS
B20: il10ra_site1_sap_19_mot_HHH_b1_08697_af2_000000298_0001_1_18_H_._HHH_b2_01157_0001_0000100005_0000001_0_0001_af2pred_0001 (protein)
chain: SSSSNEEVKQLVELIREAAELHHKGNREEAKEVLEEAKELAEELGNPLAELLIEFLERQNSSSSS
B21: il10ra_site1_sap_18_mot_HHH_b2_07144_000000289_0001_1_18_H_._HHH_b1_08370_0001_0000200016_0000001_0_0001 (protein)
chain: SSSSDLAHRVYKLSRKALELRARGDPEEAERLLEEALELLEENNNRAQLRVVRMILERLGSSSSS
B22: il10ra_site1_normal_mot_HHH_b1_05056_000000217_0001_1_20_H_._HHH_b2_07116_0001_0000300030_0000001_0 (protein)
chain: SSSSSDEEIEEEVEELLEQARHIEDPKEVAELLLEAAQLAFELQDPELLRLVWRVVQELASSSSS
B23: il10ra_site1_normal_mot_HHH_b1_01821_000000158_0001_23_39_H_._HHH_b2_00894_af2_0001_0000100002_0000001_0 (protein)
chain: SSSSDEAEEEARELLERLEEALEEGDQEKAAQIAQEAVRAAFRAGDPELLQAIWELFRRFISSSS
B24: il10ra_site1_sap_15_mot_HHH_b2_03328_af2_000000127_0001_1_19_H_._891b8491a18eb46c9ad5c1702b87f9cc_0001_0001_0000100002_0000002_0_0001 (protein)
chain: SSSSDERFELVRKVIEEAIELWEQGNEEEARELIEEALEELRELGDWVAVKALEHLLRVLSSSSS
B25: il10ra_site1_sap_11_mot_HHH_b2_02267_000000141_0001_1_20_H_._HHH_b1_06352_af2_0001_0000500026_0000001_0_0001 (protein)
chain: SSSSTDEAFERVKELVKRAVELARNGNPEEAEKLLEEARELAEESNTMALRWAVEHLLRLLSSSS
B26: il10ra_site1_normal_mot_HHH_b2_06311_000000217_0001_1_16_H_._HHH_b2_06308_0001_0000300048_0000001_0 (protein)
chain: SSSSDEELERYVRQALHFIKALAKDNEEAARALARFLLQTVEEQGDEELFEIVEKLLEELSSSSS
B27: il10ra_site1_sap_23_mot_ems_3hM_250_000000141_0001_1_18_H_._230fcc1677eb0c512f32732c1a7e1c83_0001_af2_0001_0000900015_0000001_0_0001 (protein)
chain: SSSSDDYEEVKRLAEEASKLLRNGDPEEAEELLEELEEKLREKGNMDALFAVEHMLRVVRNSSSS
B28: il10ra_site1_normal_mot_b26a303360aa2756ef5b79665ce52f45_0001_000000179_0001_1_11_H_._HHH_b2_04602_0001_0000200015_0000001_0 (protein)
chain: SSSSSESYEIARRAIEEALELFRRGNPEKAEEVLEEAERLVEELNDEVTLFSLRHALRDLSSSSS
B29: il10ra_site1_normal_mot_HHH_b1_02997_000000220_0001_39_52_H_._HHH_b1_01256_0001_0000100003_0000001_0_af2pred_dldesign_0_af2pred (protein)
chain: SSSSSDQEKIDKIIDLIREALELEDPEEARRVLEEAIKLAKEANDPILEYNAEYLLRQVESSSSS
B30: il10ra_site1_sap_25_mot_HHH_b2_02736_000000092_0001_22_38_H_._HHH_b1_01266_0001_0000100003_0000002_0_0001_af2pred_0001 (protein)
chain: SSSSSSTDAREVKRLLEEALHIDDPEEREELLEEALRLAEEGNDLTAEVIVRFALKRLSSSSSSS
B31: il10ra_site1_sap_21_mot_HHH_b1_03314_af2_000000278_0001_42_55_H_._HHH_b2_06165_0001_0000200009_0000001_0_0001 (protein)
chain: SSSSDSAEIAVKVLEESLRRAKELGDEEYARNAARFLLHIARWAGDEEVQEFAEEVLEELSSSSS
B32: il10ra_site1_sap_25_mot_HHH_b1_08446_000000041_0001_1_19_H_._HHH_b1_00288_af2_0001_0000100004_0000002_0_0001 (protein)
chain: SSSSDEAYEVSRRFIEEAAQAAREGNPEEAERLLEEAIEEVKELGNRVAVMVLEWALELYESSSS
B33: il10ra_site1_sap_14_mot_HHH_b2_07442_000000239_0001_40_54_H_._HHH_b2_03913_0001_0000100003_0000002_0_0001 (protein)
chain: SSSSSDDERAEEQAKAAFRFARSADEETRRFVEWSLEFLAEDFNDPELEKLLRELRELLSSSSSS
B34: il10ra_site1_normal_mot_HHH_b2_00984_000000042_0001_1_20_H_._HHH_b2_02963_0001_0000400015_0000001_0 (protein)
chain: SSSSSDEEEVRRLLEEAEELFENGNPEEAVELLLEAVQIAQENSNPELLQEVWEVIKELFSSSSS
B35: il10ra_site1_sap_18_mot_HHH_b1_04015_af2_000000074_0001_1_17_H_._HHH_b2_01387_0001_0000100001_0000002_0_0001 (protein)
chain: SSSSSTEEVMELIREAAELDQQGNEEEAREVLEEAQKLAEELNNWALRWAIEHLERVLNSSSSSS
B36: il10ra_site1_sap_20_mot_HHH_b1_07932_000000020_0001_21_38_H_._HHH_b1_03085_af2_0001_0000300024_0000001_0_0001 (protein)
chain: SSSSDELAQELLELVLEAVRLALRGNPEEAEELLEEAEELARKVGDERALEMVEDLLKALSSSSS
B37: il10ra_site1_sap_19_mot_cf6887094a6cbc74a5ee628dd8f6c644_0001_1_af2_000000155_0001_15_32_H_._HHH_b2_06314_0001_0000300023_0000001_0_0001 (protein)
chain: SSSSTQEIMKLIEELSEAIQEGDRELAEELIEEIERLIEEEGNFALEFALRVAAEAARRFLSSSS

target: il10ra, Q13651; assay: yeast display titration

Apparent Kd, inactive:
B1 no binding seen, B2 no binding seen, B3 no binding seen, B4 no binding seen, B5 no binding seen, B6 no binding seen, B7 > 1.15 µM, B8 no binding seen, B9 no binding seen, B10 no binding seen, B11 no binding seen, B12 no binding seen, B13 no binding seen, B14 no binding seen, B15 no binding seen, B16 no binding seen, B17 no binding seen, B18 no binding seen, B19 no binding seen, B20 no binding seen, B21 no binding seen, B22 no binding seen, B23 no binding seen, B24 no binding seen, B25 no binding seen, B26 no binding seen, B27 no binding seen, B28 no binding seen, B29 no binding seen, B30 no binding seen, B31 no binding seen, B32 no binding seen, B33 no binding seen, B34 no binding seen, B35 no binding seen, B36 no binding seen, B37 no binding seen
